Data as given in publication PMC4751364, “Mitotic Activation of a Novel Histone Deacetylase 3-Linker Histone H1.3 Protein Complex by Protein Kinase CK2*” (The Journal of Biological Chemistry, 2015).

Columns and labels:
Test in all cases: co-IP; endogenous proteins of HeLa S3 whole cell extracts (0.5% Nonidet P-40 in PBS), unsynchronised or synchronised to S, early G2, late G2 phase or mitosis (double thymidine block, nocodazole); antibody 1-2 ug/ml overnight at 4 C, protein A/G- or L-agarose, washed three times with radioimmune precipitation assay buffer; Western blot; non-immune IgG/IgM as control
[1] = target: T1, HDAC10 (human (endogenous in HeLa S3)) (UniProt Q969S8)
T1 sequence: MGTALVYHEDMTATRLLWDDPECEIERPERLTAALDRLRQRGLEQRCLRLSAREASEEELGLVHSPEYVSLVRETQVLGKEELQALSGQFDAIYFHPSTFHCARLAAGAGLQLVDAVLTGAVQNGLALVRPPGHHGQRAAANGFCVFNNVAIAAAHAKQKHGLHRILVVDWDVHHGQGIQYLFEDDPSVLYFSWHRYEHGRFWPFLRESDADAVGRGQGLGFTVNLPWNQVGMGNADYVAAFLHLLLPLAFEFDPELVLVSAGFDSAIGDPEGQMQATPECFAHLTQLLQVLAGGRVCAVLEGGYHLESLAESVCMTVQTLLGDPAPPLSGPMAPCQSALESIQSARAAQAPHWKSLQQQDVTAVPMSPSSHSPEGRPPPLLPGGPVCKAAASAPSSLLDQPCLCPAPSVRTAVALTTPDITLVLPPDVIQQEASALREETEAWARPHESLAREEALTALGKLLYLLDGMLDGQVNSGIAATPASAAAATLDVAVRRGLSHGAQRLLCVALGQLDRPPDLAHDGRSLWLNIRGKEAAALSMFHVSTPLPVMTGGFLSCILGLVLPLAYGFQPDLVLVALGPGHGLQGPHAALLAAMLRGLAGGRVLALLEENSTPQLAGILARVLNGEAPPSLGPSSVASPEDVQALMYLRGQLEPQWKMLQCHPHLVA

[2] = target: T2, HDAC11 (human (endogenous in HeLa S3)) (UniProt Q96DB2)
T2 sequence: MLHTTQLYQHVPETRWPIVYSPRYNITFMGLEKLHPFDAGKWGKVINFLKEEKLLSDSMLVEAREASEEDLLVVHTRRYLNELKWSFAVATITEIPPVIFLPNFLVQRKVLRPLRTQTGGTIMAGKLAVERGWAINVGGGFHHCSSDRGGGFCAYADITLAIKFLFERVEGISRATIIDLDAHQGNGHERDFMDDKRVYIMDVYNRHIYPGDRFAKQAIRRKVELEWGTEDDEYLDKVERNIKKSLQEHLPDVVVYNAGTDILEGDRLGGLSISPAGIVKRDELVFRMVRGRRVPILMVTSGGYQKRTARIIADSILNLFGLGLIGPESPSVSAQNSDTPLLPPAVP

[3] = target: T3, HDAC7 (human (endogenous in HeLa S3)) (UniProt Q8WUI4)
T3 sequence: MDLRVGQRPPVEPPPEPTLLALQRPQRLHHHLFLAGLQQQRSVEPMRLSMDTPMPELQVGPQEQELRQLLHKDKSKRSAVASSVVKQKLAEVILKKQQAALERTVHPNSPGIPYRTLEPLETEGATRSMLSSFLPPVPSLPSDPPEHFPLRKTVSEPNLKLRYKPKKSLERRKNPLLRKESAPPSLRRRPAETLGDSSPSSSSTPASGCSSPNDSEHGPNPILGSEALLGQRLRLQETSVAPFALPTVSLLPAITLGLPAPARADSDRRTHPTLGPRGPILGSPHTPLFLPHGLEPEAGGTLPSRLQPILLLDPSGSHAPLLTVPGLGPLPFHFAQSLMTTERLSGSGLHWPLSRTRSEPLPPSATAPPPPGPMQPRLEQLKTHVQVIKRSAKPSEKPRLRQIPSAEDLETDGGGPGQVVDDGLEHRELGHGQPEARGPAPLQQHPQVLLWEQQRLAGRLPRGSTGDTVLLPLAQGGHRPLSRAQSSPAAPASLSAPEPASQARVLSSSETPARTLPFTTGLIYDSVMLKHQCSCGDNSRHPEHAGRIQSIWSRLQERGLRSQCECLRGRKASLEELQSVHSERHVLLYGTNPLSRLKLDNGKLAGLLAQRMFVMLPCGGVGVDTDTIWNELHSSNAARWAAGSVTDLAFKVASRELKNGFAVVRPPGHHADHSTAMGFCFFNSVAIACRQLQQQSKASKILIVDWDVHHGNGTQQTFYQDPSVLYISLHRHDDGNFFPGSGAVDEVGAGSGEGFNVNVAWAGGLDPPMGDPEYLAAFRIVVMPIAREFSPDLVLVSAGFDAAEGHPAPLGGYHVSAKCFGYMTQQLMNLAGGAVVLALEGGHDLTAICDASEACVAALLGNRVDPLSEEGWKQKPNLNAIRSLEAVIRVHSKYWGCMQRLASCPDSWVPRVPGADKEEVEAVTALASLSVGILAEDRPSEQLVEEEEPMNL

[4] = target: T4, HDAC8 (human (endogenous in HeLa S3)) (UniProt Q9BY41)
T4 sequence: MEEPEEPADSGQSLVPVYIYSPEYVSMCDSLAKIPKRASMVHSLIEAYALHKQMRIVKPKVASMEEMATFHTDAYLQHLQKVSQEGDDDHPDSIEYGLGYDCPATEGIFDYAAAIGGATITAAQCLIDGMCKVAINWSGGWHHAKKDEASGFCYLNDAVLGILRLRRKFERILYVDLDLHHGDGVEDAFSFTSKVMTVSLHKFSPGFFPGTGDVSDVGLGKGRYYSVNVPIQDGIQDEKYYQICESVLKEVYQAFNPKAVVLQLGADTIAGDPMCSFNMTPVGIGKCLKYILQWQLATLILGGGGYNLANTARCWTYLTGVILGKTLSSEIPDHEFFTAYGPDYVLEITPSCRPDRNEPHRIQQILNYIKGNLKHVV

binding [1]: no binding | binding [2]: no binding | binding [3]: no binding | binding [4]: binds
Substance: linker histone H1 (human (endogenous in HeLa S3))

These are yes or no findings as the source states them, for the method shown. In cells and extracts the contact can be indirect. For some of these results: Binding calls can cover weak binding; strength is not graded here.
